Laboratory results: PubChem BioAssay AID504444 (National Center for Advancing Translational Sciences (NCATS), 2011)
The whole screen tested about 360,000 compounds, of which about 7,500 (2.1%) were called active. This list was built around the results that the source calls inconclusive (neither active nor inactive); the mix of calls is not that of the screen. Calls follow the shape of the dose curve; as a rule, active = well fitted inhibition curve with a large enough effect; inconclusive = small, poorly fitted or top-dose-only effect, or effect the other way; inactive = flat fitted curve, though single readings scatter. Where the call is inconclusive, the potency comes from a doubtful curve fit.
% is scaled to controls: 0 for no effect and ±100 for the full control effect; potency is read from the fitted curve at half-maximal effect.

Test: Nrf2 qHTS screen for inhibitors; also: nearly all actives have a fitted effect of over 60% in size
Settings: A549 ARE-Fluc reporter, luciferase luminescence, 18-24 h; activity change, negative = inhibition: at 46 µM (top of the series)
How it was run: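 Nrf2 activity is the BugLite luminescence, read 15 min after reagent at room temperature, following CellTiter-Fluor cytotoxicity readout (30 min, 37C). Compound titrations were applied for 18-24 h to 5000 A549 ARE_Fluc cells/well in 5% FBS OPTI-MEM.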
With Cc1ccccc1CSc1cn(CC(=O)N2CCCC2)c2ccccc12 the Potency was inconclusive: 4.11 µM [activator, full curve, poor fit].
In the case of COc1ccccc1NC(=O)c1nc(SCc2ccc(F)cc2)ncc1Cl, the “activity change, negative = inhibition” value is reported as inactive: 6.21%.
In the case of CCc1ccc(N2CCn3c2nc2c3c(=O)n(CCc3ccccc3)c(=O)n2C)cc1, the Potency is reported as inconclusive: 32.6 µM [falling, single point].
In the case of Cc1ccc(C(=O)c2ccccc2C(=O)OCC(=O)N2CCCC2)cc1, the Potency is reported as inconclusive: 25.9 µM [activator, single point].
In the case of COc1ccc(-n2nc(C(=O)NCC(=O)Nc3cc(OC)c(OC)c(OC)c3)c3ccccc3c2=O)cc1OC, the “activity change, negative = inhibition” value is reported as inactive: -17.8%.
For CCN(CC)c1ccc(S(=O)(=O)Nc2cc(Cl)ccc2Cl)cc1NC(=S)NC(=O)C1CCCC1, the Potency was active: 18.4 µM.
With CCCCC(=O)Nc1ccccc1C(=O)OCC(=O)c1ccc2c(c1)OCCO2 the Potency was inconclusive: 29.1 µM [falling, single point].
With Cc1ccccc1NC(=O)CC1SC(=O)N(c2ccccc2)C1=O (stereo not given) the Potency was inconclusive: 18.4 µM [activator, partial curve, poor fit].
With Cn1cnc([N+](=O)[O-])c1S(=O)(=O)Oc1cccc2ccccc12 the Potency was inconclusive: 29.1 µM [falling, single point].
For Cc1ccc(NC(=O)Nc2ccc(F)cc2)cc1Cl, the Potency was inconclusive: 20.6 µM [activator, single point].
In the case of CCOC(=O)N/N=C\C=C\c1ccco1, the Potency is reported as inconclusive: 25.9 µM [activator, single point].
In the case of O=C(NCC1CCCCC1)c1cccc(Br)c1, the Potency is reported as inconclusive: 29.1 µM [activator, single point].
For Cc1ccc2[nH]c(C)c(CCNC(=O)NC3CCCCC3)c2c1, the Potency was active: 20.6 µM.
For O=C(Cc1ccc([N+](=O)[O-])cc1)OCc1ccc([N+](=O)[O-])cc1, the “activity change, negative = inhibition” value was inactive: -10.1%.
With O=C1/C(=C/c2ccccc2)CCC1C1CCCC1 (stereo not given) the Potency was inconclusive: 4.11 µM [activator, full curve, poor fit].
For Cc1ccc(N(CC(=O)N2CCN(c3cc(Cl)ccc3C)CC2)S(=O)(=O)c2c(C)noc2C)cc1, the “activity change, negative = inhibition” value was inactive: -29%.
With CC(=O)Nc1cccc(/C(C)=N/Nc2nc3ccccc3s2)c1 the Potency was inconclusive: 3.66 µM [activator, full curve].
In the case of Clc1ccc(-c2nc3ccccn3c2Nc2ccc3c(c2)OCCO3)s1, the Potency is reported as inconclusive: 8.2 µM [activator, partial curve].
For COc1cc(-c2nnn(CC(=O)NCc3ccccc3)n2)cc(OC)c1OC, the Potency was inconclusive: 13 µM [falling, partial curve].
With CCOC(=O)c1ccc(-c2ccc3ncnc(NCc4cccs4)c3c2)o1 the “activity change, negative = inhibition” value was inactive: 0%.
In the case of CCOC(=O)CCCN1CC(O)=C(c2nc3ccccc3s2)C1=N, the Potency is reported as inconclusive: 29.1 µM [activator, single point].
With Cc1cccn2cc(-c3cc4ccccc4oc3=O)nc12 the Potency was inconclusive: 0.58 µM [activator, full curve, poor fit].
With O=C(Nc1cccc(N=Cc2cc(Cl)cc(Br)c2O)c1)c1ccco1 the Potency was inconclusive: 14.6 µM [activator, partial curve, poor fit].
With O=S(=O)(Nc1ccccn1)c1ccc(Cl)cc1 the Potency was inconclusive: 6.51 µM [falling, partial curve, poor fit].
For CCC(=O)N1CCc2cc(S(=O)(=O)NCCC(=O)Nc3ccc(OC)c(OC)c3)ccc21, the “activity change, negative = inhibition” value was inactive: 11%.
With CN(C)c1ccc(/C=N/N=C/c2ccccc2O)cc1 the Potency was inconclusive: 16.4 µM [activator, partial curve].
In the case of O=C(NCc1ccco1)c1c[nH]c2ccc(S(=O)(=O)N3CCOCC3)cc2c1=O, the “activity change, negative = inhibition” value is reported as inactive: -14%.
For COc1ccc(NC(=S)NC(NC(=O)CCl)C(Cl)(Cl)Cl)c([N+](=O)[O-])c1 (stereo not given), the “activity change, negative = inhibition” value was inactive: 4.7%.
For O=C1NC2=C(C(=O)CCC2)C(c2ccccc2)N1 (stereo not given), the Potency was inconclusive: 18.4 µM [activator, single point].
With CCOC(=O)C1=C(NC(=O)c2ccc(Br)o2)Nc2ccccc2N=C1 the Potency was inconclusive: 5.8 µM [falling, partial curve, poor fit].
In the case of COc1cc(C(=O)O/N=C2\C=CC(=O)C(C)=C2)cc(OC)c1OC, the “activity change, negative = inhibition” value is reported as inactive: 2.81%.
For COc1cccc(-c2cc(C(F)(F)F)nc(-n3cc(Cl)cn3)n2)c1, the Potency was active: 10.3 µM.
With O=C(Oc1c(-c2ccccc2)c(=O)n2c3c(cccc13)CC2)c1ccc(F)cc1 the Potency was inconclusive: 18.4 µM [activator, partial curve, poor fit].
In the case of COc1ccc2oc(C(=O)NCc3ccco3)c(C)c2c1, the Potency is reported as inconclusive: 5.8 µM [activator, partial curve].
With CCCOc1ccc(C(=O)Nc2ccc3c(c2)OCCO3)cc1 the Potency was inconclusive: 1.3 µM [activator, full curve].
For CCOc1ccc(NC(=O)CN2CCN(CC(=O)Nc3ccc(OC)cc3)CC2)cc1, the “activity change, negative = inhibition” value was inactive: 17.4%.
With COc1ccc(-c2ccc(SCC(=O)c3ccc(F)cc3)nn2)cc1OC the “activity change, negative = inhibition” value was inactive: -0.0707%.
In the case of Cc1cc(C(=O)CSc2nc3ccccc3[nH]2)c(C)n1CC1CCCO1 (stereo not given), the Potency is reported as inconclusive: 14.6 µM [falling, single point].
For N/C(=N\OC(=O)c1ccc(Cl)c(Cl)c1)c1cccc(CSc2ccccn2)c1, the Potency was inconclusive: 9.2 µM [activator, partial curve].
For O=C(Nc1ccccc1)C1=C[C@@H](C2CCCCC2)C[C@@H](OCc2ccc(CO)cc2)O1, the Potency was inconclusive: 20.6 µM [activator, single point].
In the case of CCn1nc(C(=O)Nc2ccccc2C)c(Cl)c1Cl, the “activity change, negative = inhibition” value is reported as inactive: 4.53%.
For Cc1c(NC(=O)COC(=O)c2ncc(Cl)c(Cl)c2Cl)c(=O)n(-c2ccccc2)n1C, the Potency was inconclusive: 2.59 µM [activator, partial curve, poor fit].
With CN(C(=O)CSc1nc2ccc(NC(=O)COc3ccccc3Cl)cc2s1)c1ccccc1 the “activity change, negative = inhibition” value was inactive: -11.1%.
For O=C(COC(=O)c1cncc(Br)c1)Nc1ccc(N2CCCCC2)cc1, the Potency was inconclusive: 7.31 µM [activator, partial curve].
With O=C(N/N=C/c1cccs1)c1cccc(S(=O)(=O)Nc2ccc(Cl)cc2)c1 the Potency was inconclusive: 16.4 µM [falling, partial curve, poor fit].
